From the supplement of paper PMC10331698
± gives the standard deviation of the averaged measurements. Small differences around the control level are noise.

Assays:
Experiment in all cases: level (log10 ratio to DMSO vehicle control); higher = higher biomarker level / cell amount than vehicle control
[1] = compound: CC(C)(C)C(=O)CC(=O)C(F)(F)C(F)(F)C(F)(F)F [(Heptafluorobutanoyl)pivaloylmethane]; conditions: 2200 nM; in DMSO
Procedure: (§1)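 BioMAP Diversity Plus panel of 12 human primary cell co-culture systems (3C, 4H, LPS, SAg, BT, BF4T, BE3C, CASM3C, HDF3CGF, KF3CT, MyoF, Mphg). Compounds were added 1 h before stimulation and left for 24 h (MyoF 48 h; BT 72 h for soluble read-outs or 6 d for IgG). Biomarkers were read by ELISA, cytotoxicity by SRB, PBMC viability and proliferation by Alamar Blue. Each well value was divided by the mean of 8 DMSO control wells on the same plate and log10 transformed; duplicate blinded samples were tested at 4 concentrations.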

[2] = compound: CCCCCCCCC(F)(F)C(F)(F)C(F)(F)C(F)(F)C(F)(F)C(F)(F)F [1-(Perfluorohexyl)octane]; conditions: in DMSO
Procedure: as §1

[3] = compound: CCN(CCO)S(=O)(=O)C(F)(F)C(F)(F)C(F)(F)C(F)(F)C(F)(F)C(F)(F)C(F)(F)C(F)(F)F [N-Ethyl-N-(2-hydroxyethyl)perfluorooctanesulfonamide]; conditions: in DMSO
Procedure: as §1

[4] = compound: CN(C(=O)C(F)(F)C(F)(F)C(F)(F)F)[Si](C)(C)C [N-Methyl-N-trimethylsilylheptafluorobutyramide]; conditions: 2200 nM; in DMSO
Procedure: as §1

[5] = compound: Cc1ccc(S(=O)(=O)OCC(F)(F)C(F)(F)C(F)(F)C(F)(F)C(F)(F)C(F)F)cc1 [1H,1H,7H-Perfluoroheptyl 4-methylbenzenesulfonate]; conditions: 2200 nM; in DMSO
Procedure: as §1

[6] = compound: FC(F)(F)C(F)(F)C(F)(F)C(F)(F)C(F)(F)C(F)(F)CC1CO1 [3-(Perfluorohexyl)-1,2-epoxypropane]; conditions: 2200 nM; in DMSO
Procedure: as §1

[7] = compound: NC(=O)C(F)(F)C(F)(F)C(F)(F)F [Heptafluorobutyramide]; conditions: 2200 nM; in DMSO
Procedure: as §1

[8] = compound: NCC(F)(F)C(F)(F)C(F)(F)C(F)(F)C(F)(F)C(F)(F)C(F)(F)F [1H,1H-Perfluorooctylamine]; conditions: 2200 nM; in DMSO
Procedure: as §1

[9] = compound: O=C(O)C(F)(F)C(F)(F)C(F)(F)C(F)(F)C(=O)O [Octafluoroadipic acid]; conditions: 2200 nM; in DMSO
Procedure: as §1

[10] = compound: O=C(O)C(F)(F)C(F)(F)C(F)(F)C(F)(F)C(F)(F)C(F)(F)C(F)(F)C(F)(F)C(F)(F)C(F)F [11-H-Perfluoroundecanoic acid]; conditions: 2200 nM; in DMSO
Procedure: as §1

[11] = compound: O=C(O)C(F)(F)C(F)(F)C(F)(F)C(F)(F)C(F)(F)C(F)(F)F [Perfluoroheptanoic acid]; conditions: in DMSO
Procedure: as §1

[12] = compound: O=C(O)C(F)(F)C(F)(F)C(F)(F)C(F)(F)F [Perfluoropentanoic acid]; conditions: in DMSO
Procedure: as §1

[13] = compound: O=C(O)C(F)(F)C(F)(F)C(F)(F)OC(F)(F)F [Perfluoro(4-methoxybutanoic) acid]; conditions: 2200 nM; in DMSO
Procedure: as §1

[14] = compound: O=S(=O)(O)CCC(F)(F)C(F)(F)C(F)(F)C(F)(F)C(F)(F)C(F)(F)C(F)(F)C(F)(F)F [8:2 Fluorotelomer sulfonic acid]; conditions: in DMSO
Procedure: as §1

[15] = compound: OCC(F)(F)C(F)(F)C(F)(F)F [1H,1H-Heptafluorobutanol]; conditions: 2200 nM; in DMSO
Procedure: as §1

[16] = compound: OCCC(F)(F)C(F)(F)C(F)(F)C(F)(F)C(F)(F)C(F)(F)F [6:2 Fluorotelomer alcohol]; conditions: 2200 nM; in DMSO
Procedure: as §1

Test System	level (log10) [1]	level (log10) ([2]; 740 nM)	level (log10) ([2]; 2200 nM)	level (log10) ([3]; 2200 nM)	level (log10) ([3]; 6700 nM)	level (log10) ([3]; 20000 nM)	level (log10) [4]	level (log10) [5]	level (log10) [6]	level (log10) [7]	level (log10) [8]	level (log10) [9]	level (log10) [10]	level (log10) ([11]; 2200 nM)	level (log10) ([11]; 6700 nM)	level (log10) ([11]; 20000 nM)	level (log10) ([11]; 60000 nM)	level (log10) ([12]; 2200 nM)	level (log10) ([12]; 6700 nM)	level (log10) ([12]; 20000 nM)	level (log10) ([12]; 60000 nM)	level (log10) [13]	level (log10) ([14]; 2200 nM)	level (log10) ([14]; 6700 nM)	level (log10) ([14]; 20000 nM)	level (log10) ([14]; 60000 nM)	level (log10) [15]	level (log10) [16]
HDF3CGF:Collagen III	-0.0605 ± 0.16	-0.02 ± 0.048	0.005 ± 0.0057	0.002 ± 0.069	-0.0465 ± 0.05	-0.142 ± 0.044	0.005 ± 0.028	-0.0275 ± 0.043	0.001 ± 0.014	-0.0285 ± 0.032	-0.01 ± 0.033	0.005 ± 0.02	-0.061 ± 0.054	-0.026 ± 0.057	-0.021 ± 0.011	-0.0385 ± 0.033	-0.013 ± 0.016	0.0175 ± 0.063	0.005 ± 0.014	0.01 ± 0.017	0.033 ± 0.034	-0.005 ± 0.025	0.012 ± 0.035	0.05 ± 0.014	0.0975 ± 0.0092	0.0145 ± 0.12	-0.0245 ± 0.093	0.0175 ± 0.021
HDF3CGF:EGFR	-0.05 ± 0.095	0.005 ± 0.025	0.004 ± 0.013	-0.028 ± 0.0085	-0.102 ± 0.024	-0.115 ± 0.0021	0.0105 ± 0.022	0.024 ± 0.027	-0.0065 ± 0.0078	-0.0045 ± 0.049	-0.058 ± 0.04	0.029 ± 0.033	0.0195 ± 0.042	0.0035 ± 0.0021	-0.008 ± 0.016	0.004 ± 0.0028	0.01 ± 0.023	0.0275 ± 0.005	0.008 ± 0.02	-0.0265 ± 0.013	-0.008 ± 0.027	-0.007 ± 0.078	-0.006 ± 0.045	-0.011 ± 0.033	-0.0455 ± 0.03	-0.101 ± 0.026	-0.048 ± 0.028	0.018 ± 0.02
HDF3CGF:M-CSF	0.017 ± 0.045	0.001 ± 0.027	-0.0125 ± 0.044	-0.009 ± 0.017	-0.101 ± 0.013	-0.27 ± 0.0071	0.006 ± 0.02	-0.0055 ± 0.088	-0.0105 ± 0.018	0.0045 ± 0.013	-0.0775 ± 0.044	-0.0035 ± 0.0035	-0.0175 ± 0.054	-0.009 ± 0.016	-0.009 ± 0.0099	0.0025 ± 0.015	0.01 ± 0.0014	-0.0095 ± 0.025	0.0025 ± 0.019	-0.018 ± 0.0099	0.004 ± 0.0028	0.0155 ± 0.037	-0.009 ± 0.04	-0.0035 ± 0.056	-0.014 ± 0.038	-0.0685 ± 0.04	0.0235 ± 0.0078	0.0045 ± 0.0035
HDF3CGF:MMP-1	-0.015 ± 0.024	0.003 ± 0.027	-0.02 ± 0.0071	0.0455 ± 0.016	0.043 ± 0.013	0.0065 ± 0.026	-0.01 ± 0.0057	-0.0085 ± 0.032	0.0005 ± 0.005	-0.0135 ± 0.0078	0 ± 0.0085	-0.011 ± 0.017	-0.0025 ± 0.056	0.0025 ± 0.00071	-0.0105 ± 0.012	0.0025 ± 0.00071	0.0065 ± 0.005	-0.007 ± 0.02	-0.0165 ± 0.013	-0.0215 ± 0.0021	-0.0215 ± 0.011	-0.005 ± 0.0014	0.002 ± 0.018	0.0205 ± 0.012	-0.017 ± 0.028	-0.0835 ± 0.036	-0.0255 ± 0.0035	0.0005 ± 0.011
HDF3CGF:PAI-I	0.027 ± 0.0028	0.012 ± 0.041	-0.0155 ± 0.03	-0.0005 ± 0.066	-0.0695 ± 0.061	-0.211 ± 0.08	0.006 ± 0.03	0.0095 ± 0.036	-0.014 ± 0.0057	-0.001 ± 0.037	-0.0075 ± 0.0078	0.0145 ± 0.046	0.0145 ± 0.019	-0.0095 ± 0.016	-0.017 ± 0.0028	-0.0215 ± 0.0035	-0.008 ± 0.041	-0.001 ± 0.0071	-0.0055 ± 0.026	-0.015 ± 0.013	0.007 ± 0.0014	0.003 ± 0.03	0.0265 ± 0.04	0.018 ± 0.034	-0.002 ± 0.021	0.0015 ± 0.0078	-0.0005 ± 0.037	0.001 ± 0.0028
HDF3CGF:Proliferation 72hr	0.002 ± 0.0014	-0.0455 ± 0.03	-0.043 ± 0.051	-0.12 ± 0.13	-0.391 ± 0.079	-0.746 ± 0.094	0.0305 ± 0.0078	-0.048 ± 0.068	-0.049 ± 0.09	-0.0355 ± 0.074	-0.021 ± 0.017	0.0045 ± 0.044	0.033 ± 0.075	-0.078 ± 0.038	-0.054 ± 0.033	0.0515 ± 0.098	-0.018 ± 0.018	-0.009 ± 0.033	0.002 ± 0.041	0.0505 ± 0.11	0.022 ± 0.03	-0.049 ± 0.065	-0.0405 ± 0.021	0.0275 ± 0.044	0.0785 ± 0.06	0.107 ± 0.0014	-0.019 ± 0.034	-0.0295 ± 0.0035
HDF3CGF:SRB	-0.028 ± 0.04	-0.009 ± 0.027	-0.014 ± 0.041	-0.0565 ± 0.052	-0.127 ± 0.011	-0.153 ± 0.084	0.022 ± 0.031	-0.0365 ± 0.026	-0.0465 ± 0.044	0.016 ± 0.034	0.004 ± 0.017	0.0045 ± 0.0035	0.0415 ± 0.026	-0.0305 ± 0.018	-0.029 ± 0.016	0.0125 ± 0.064	-0.045 ± 0.052	-0.0115 ± 0.0078	0.012 ± 0.011	0.01 ± 0.018	0.0125 ± 0.03	-0.0005 ± 0.0064	-0.032 ± 0.0071	-0.044 ± 0.064	-0.017 ± 0.1	0.168 ± 0.037	-0.0035 ± 0.063	-0.027 ± 0.054
HDF3CGF:TIMP-1	-0.019 ± 0.0042	-0.0035 ± 0.061	-0.0075 ± 0.063	0.0425 ± 0.063	0.005 ± 0.081	-0.0605 ± 0.074	0.003 ± 0.023	0.0065 ± 0.064	0.018 ± 0.055	0.014 ± 0.059	-0.0235 ± 0.044	-0.004 ± 0.041	-0.0465 ± 0.033	-0.0165 ± 0.052	-0.0015 ± 0.00071	-0.0115 ± 0.0035	-0.0055 ± 0.035	0.0135 ± 0.018	-0.0195 ± 0.0021	-0.032 ± 0.014	0.0115 ± 0.011	0.009 ± 0.059	0.023 ± 0.055	0.0375 ± 0.0064	0.0435 ± 0.037	-0.0365 ± 0.077	-0.0095 ± 0.013	0.0245 ± 0.032
